Some entries share one result that the patent states for a list of compounds. Some ranges recur; such a range may be that of the whole group of compounds.
System: MCF-7, MDA-Mb-231 and Zr-75 cell lines
Test: In vitro anti-cancer activity in human breast cancer cell lines, MTT (statements pooled over the three lines)
Format: cell-based
Settings: 48 h, FIG. 2
Experimental: Anti-cancer activities of the compounds f1-f15 on human breast cancer cell line were tested in ER positive (MCF-7) and […] cell lines. The human breast cancer cell lines MCF-7 and MDA-MB-231 were cultured in Dulbecco's Modified Eagle's Medium (DMEM) supplemented with 10% fetal bovine serum (FBS) (HyClone Laboratories, Logan, Utah, USA) and 1% penicillin: streptomycin (Invitrogen, Carlsbad, Calif., USA) in 12 well plates. The test compounds f1-f15 were dissolved in DMSO and one microliter of the stock solution was used per milliliter of the culture to make a working concentration1 1×10^−5, 1×10^−6 and 1×10^−7 M. Each test includes control wells. The cell suspension was diluted to 1×10^4 cells/mL by adding fresh medium, and 1 mL of this suspension was added to the test and control wells. The plates were incubated at 37° C. under CO2 for 24 h. After incubation, the culture media was changed and cells were treated with […] of stock solution. Cells were incubated at 37° C. under CO2 for 48 h. The growth of the cells was checked with a low power microscope and MTT assay was used to confirm the viability. In the similar experiments, the ZR-75 cells were grown in RPMI 1640 (HyClone Laboratories, Logan, Utah, USA) supplemented with 10% fetal bovine serum (FBS) (HyClone Laboratories, Logan, Utah, USA) and 1% penicillin: streptomycin (Invitrogen, Carlsbad, Calif., USA).
The results for each compound are reported as percent growth (GP %) of treated cells compared to untreated controls. The inhibitory effects were detectable in compounds 2, 8, 10, 12 and 14 among the compounds f1-f15. […] The percent growth inhibition of compounds varied not only with the substituent groups but also with the nature of the cell line.

Row | SMILES | negative growth compared to the untreated cells (percent growth, GP %)
1 | O=C(Cn1nnnc1-c1ccc2c(c1)OCO2)NN=Cc1ccccc1Cl [f2, 2-[5-(1,3-benzodioxol-5-yl)-1H-tetrazol-1-yl]-N′-[(2-chlorophenyl)methylidene]acetohydrazide] | 10-30%
2 | COc1ccc(C=NNC(=O)Cn2nnnc2-c2ccc3c(c2)OCO3)cc1OC [f8, 2-[5-(1,3-benzodioxol-5-yl)-1H-tetrazol-1-yl]-N′-[(3,4-dimethoxyphenyl)methylidene]acetohydrazide] | 10-30%
3 | O=C(Cn1nnnc1-c1ccc2c(c1)OCO2)NN=Cc1ccccc1[N+](=O)[O-] [f10, 2-[5-(1,3-benzodioxol-5-yl)-1H-tetrazol-1yl]-N′-[(2-nitrophenyl)methylidene]acetohydrazide] | 10-30%
4 | O=C(Cn1nnnc1-c1ccc2c(c1)OCO2)NN=Cc1cccc([N+](=O)[O-])c1 [f12, 2-[5-(1,3-benzodioxol-5-yl)-1H-tetrazol-1yl]-N′-[(3-nitrophenyl)methylidene]acetohydrazide] | 10-30%
5 | O=C(Cn1nnnc1-c1ccc2c(c1)OCO2)N/N=C/c1ccc([N+](=O)[O-])cc1 [f14, 2-[5-(1,3-benzodioxol-5-yl)-1H-tetrazol-1-yl]-N′-[(E)-(4-nitrophenyl)methylidene]acetohydrazide] | 10-30%
